According to PMC4777444:
Results are given in words; binding and its absence hold for the method and conditions named. Binding seen in cells or lysates may run through a third protein. A yes stands for co-enrichment or nearness to the bait. Other partners may have been found. Tags and fused reporters may be left off the sequences shown.

By UniProt entry, the sequences of proteins in these tests, tags left out.
UniProt Q12873: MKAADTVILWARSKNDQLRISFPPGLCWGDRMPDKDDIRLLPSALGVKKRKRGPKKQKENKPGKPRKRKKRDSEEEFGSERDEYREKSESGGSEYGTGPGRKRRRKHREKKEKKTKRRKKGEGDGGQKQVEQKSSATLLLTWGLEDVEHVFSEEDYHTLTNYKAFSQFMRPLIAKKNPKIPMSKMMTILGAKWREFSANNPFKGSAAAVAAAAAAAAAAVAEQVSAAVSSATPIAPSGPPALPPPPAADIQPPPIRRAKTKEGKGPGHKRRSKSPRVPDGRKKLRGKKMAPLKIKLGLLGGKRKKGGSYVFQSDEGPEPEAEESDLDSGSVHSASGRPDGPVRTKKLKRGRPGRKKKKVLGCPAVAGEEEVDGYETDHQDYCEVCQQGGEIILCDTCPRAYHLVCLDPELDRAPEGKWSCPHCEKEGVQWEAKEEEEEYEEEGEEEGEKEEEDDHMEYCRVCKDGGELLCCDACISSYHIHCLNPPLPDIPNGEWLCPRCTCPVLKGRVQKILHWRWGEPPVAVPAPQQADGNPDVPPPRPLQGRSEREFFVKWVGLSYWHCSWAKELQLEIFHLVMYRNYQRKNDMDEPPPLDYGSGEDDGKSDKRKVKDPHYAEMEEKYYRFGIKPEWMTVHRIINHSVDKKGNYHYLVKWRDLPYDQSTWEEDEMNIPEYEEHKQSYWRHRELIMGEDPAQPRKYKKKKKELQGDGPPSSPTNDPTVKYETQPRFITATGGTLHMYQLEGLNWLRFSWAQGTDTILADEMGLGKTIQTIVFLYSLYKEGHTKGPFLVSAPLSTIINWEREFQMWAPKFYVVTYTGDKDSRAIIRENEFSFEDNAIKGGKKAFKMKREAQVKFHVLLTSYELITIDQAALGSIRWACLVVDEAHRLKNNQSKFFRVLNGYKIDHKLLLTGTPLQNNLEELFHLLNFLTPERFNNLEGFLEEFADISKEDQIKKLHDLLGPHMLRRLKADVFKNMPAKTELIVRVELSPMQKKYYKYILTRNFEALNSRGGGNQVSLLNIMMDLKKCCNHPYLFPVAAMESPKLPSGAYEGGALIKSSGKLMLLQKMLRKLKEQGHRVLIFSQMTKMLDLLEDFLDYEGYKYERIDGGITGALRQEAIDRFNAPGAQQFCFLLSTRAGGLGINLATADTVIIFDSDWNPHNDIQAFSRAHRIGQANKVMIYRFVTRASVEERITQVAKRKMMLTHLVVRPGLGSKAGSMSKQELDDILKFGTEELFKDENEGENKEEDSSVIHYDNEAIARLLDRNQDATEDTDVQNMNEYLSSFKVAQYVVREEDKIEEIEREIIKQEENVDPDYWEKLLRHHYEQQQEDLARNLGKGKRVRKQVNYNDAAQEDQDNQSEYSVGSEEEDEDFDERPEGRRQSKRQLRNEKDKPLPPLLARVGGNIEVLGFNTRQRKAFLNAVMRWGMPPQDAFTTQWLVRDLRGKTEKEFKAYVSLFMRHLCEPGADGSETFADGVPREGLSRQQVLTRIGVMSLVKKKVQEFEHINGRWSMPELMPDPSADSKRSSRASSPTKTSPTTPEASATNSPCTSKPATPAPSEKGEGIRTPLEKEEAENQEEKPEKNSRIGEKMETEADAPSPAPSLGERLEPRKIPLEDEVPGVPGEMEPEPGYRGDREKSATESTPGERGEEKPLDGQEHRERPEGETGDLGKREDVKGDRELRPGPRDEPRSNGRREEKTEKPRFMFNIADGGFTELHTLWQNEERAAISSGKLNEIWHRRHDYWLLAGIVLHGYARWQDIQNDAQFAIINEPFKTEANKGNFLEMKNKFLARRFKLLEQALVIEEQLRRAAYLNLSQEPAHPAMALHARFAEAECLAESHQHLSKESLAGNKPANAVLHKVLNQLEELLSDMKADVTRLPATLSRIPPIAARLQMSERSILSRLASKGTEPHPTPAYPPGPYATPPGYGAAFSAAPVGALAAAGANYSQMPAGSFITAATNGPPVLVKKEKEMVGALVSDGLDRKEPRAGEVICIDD
UniProt Q9NR30: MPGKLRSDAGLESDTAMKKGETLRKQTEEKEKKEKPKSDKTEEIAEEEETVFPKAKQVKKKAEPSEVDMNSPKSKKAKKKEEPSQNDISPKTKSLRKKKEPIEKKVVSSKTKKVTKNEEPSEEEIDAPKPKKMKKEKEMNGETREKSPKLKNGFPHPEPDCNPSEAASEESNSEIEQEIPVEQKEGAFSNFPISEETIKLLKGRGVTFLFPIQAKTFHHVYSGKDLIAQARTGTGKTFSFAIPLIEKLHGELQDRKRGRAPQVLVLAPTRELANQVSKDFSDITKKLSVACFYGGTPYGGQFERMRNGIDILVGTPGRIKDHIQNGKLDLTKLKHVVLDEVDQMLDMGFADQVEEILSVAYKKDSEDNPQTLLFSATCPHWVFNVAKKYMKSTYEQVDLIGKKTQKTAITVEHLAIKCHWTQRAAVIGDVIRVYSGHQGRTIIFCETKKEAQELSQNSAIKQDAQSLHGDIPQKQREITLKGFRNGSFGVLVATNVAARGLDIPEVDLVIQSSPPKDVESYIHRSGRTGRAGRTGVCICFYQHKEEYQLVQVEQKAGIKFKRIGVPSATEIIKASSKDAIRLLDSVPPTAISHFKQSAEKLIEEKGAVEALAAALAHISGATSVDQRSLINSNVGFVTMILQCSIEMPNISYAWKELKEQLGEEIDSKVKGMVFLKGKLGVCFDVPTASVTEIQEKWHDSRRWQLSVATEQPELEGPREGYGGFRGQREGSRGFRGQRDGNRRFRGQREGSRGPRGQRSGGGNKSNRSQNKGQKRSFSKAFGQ
UniProt P45973: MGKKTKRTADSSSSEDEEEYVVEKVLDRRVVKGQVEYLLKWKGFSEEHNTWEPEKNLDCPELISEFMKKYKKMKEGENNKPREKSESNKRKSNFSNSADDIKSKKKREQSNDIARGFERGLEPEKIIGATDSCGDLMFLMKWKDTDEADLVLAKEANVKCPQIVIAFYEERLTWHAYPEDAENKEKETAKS
UniProt Q9Y265: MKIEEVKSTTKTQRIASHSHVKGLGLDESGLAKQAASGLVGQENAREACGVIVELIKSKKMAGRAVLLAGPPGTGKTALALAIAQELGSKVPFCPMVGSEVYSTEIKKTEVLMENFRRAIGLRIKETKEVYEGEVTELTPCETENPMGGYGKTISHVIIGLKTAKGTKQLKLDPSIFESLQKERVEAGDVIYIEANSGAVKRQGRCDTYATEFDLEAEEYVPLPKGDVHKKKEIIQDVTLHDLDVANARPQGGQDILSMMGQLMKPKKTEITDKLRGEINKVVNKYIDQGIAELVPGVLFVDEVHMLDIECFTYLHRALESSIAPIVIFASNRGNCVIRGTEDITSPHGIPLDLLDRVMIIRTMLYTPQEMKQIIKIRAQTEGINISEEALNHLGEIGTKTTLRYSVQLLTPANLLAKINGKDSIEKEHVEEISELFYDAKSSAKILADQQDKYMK
UniProt Q92841: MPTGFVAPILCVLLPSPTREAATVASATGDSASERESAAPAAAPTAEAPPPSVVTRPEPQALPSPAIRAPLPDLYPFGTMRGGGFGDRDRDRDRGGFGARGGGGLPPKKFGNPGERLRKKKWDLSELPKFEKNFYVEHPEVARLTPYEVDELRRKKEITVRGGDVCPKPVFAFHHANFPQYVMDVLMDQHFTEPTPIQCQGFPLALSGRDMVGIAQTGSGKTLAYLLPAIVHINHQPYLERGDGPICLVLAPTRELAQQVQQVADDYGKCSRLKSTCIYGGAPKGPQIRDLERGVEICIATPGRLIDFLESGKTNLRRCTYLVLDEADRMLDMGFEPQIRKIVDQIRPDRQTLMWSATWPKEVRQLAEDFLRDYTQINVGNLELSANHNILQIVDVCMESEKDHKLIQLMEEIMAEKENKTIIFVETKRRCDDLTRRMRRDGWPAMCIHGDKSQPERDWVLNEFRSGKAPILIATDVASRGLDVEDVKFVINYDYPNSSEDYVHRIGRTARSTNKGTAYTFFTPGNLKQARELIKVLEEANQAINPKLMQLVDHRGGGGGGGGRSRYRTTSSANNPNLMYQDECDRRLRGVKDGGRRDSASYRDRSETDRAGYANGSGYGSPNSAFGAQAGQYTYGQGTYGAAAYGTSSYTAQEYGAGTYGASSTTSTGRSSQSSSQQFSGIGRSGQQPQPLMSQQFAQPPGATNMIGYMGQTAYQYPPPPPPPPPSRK
UniProt Q92769: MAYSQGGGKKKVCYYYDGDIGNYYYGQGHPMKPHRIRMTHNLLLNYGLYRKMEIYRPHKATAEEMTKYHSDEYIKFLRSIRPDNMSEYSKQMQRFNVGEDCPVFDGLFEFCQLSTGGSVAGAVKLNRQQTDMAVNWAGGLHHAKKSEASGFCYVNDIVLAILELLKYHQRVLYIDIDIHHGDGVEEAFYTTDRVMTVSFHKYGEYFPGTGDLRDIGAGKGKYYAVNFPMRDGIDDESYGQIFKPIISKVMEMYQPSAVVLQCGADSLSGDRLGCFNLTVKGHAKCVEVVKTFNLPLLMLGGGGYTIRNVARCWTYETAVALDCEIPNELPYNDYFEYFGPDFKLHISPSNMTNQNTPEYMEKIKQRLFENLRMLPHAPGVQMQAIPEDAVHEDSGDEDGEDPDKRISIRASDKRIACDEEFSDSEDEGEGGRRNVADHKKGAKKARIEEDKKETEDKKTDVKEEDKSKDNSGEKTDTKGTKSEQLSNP
UniProt P83916: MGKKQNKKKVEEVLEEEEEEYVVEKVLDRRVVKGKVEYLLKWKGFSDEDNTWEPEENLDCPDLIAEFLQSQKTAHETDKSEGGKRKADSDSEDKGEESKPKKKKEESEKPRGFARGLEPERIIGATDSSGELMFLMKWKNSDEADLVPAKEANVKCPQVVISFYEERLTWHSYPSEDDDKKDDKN
UniProt Q13185: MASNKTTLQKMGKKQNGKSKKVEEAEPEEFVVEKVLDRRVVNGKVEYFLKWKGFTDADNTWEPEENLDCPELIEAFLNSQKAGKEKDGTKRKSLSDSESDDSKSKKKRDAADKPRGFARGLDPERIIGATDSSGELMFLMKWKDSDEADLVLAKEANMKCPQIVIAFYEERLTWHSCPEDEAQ
UniProt Q13263: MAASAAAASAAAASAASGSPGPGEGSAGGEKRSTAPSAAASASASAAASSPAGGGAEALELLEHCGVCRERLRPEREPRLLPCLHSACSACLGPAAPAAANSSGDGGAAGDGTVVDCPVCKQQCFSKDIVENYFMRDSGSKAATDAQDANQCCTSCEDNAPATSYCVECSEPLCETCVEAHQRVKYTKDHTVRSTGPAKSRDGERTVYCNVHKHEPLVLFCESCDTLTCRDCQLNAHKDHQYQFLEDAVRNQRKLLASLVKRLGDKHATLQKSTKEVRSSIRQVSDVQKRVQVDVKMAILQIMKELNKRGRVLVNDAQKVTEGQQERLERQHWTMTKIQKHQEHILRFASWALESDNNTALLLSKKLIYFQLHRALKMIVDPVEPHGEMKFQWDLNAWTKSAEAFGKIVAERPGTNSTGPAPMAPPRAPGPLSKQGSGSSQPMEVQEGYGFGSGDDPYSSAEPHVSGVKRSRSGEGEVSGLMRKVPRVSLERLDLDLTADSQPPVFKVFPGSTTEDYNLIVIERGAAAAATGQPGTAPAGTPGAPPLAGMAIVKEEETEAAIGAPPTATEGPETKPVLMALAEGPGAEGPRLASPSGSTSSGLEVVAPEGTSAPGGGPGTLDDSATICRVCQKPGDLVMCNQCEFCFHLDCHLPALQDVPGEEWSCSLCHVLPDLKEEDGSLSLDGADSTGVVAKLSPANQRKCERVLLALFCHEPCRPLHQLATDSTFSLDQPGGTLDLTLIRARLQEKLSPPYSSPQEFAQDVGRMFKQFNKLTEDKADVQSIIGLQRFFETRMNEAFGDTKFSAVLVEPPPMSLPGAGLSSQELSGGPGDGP
UniProt P30153: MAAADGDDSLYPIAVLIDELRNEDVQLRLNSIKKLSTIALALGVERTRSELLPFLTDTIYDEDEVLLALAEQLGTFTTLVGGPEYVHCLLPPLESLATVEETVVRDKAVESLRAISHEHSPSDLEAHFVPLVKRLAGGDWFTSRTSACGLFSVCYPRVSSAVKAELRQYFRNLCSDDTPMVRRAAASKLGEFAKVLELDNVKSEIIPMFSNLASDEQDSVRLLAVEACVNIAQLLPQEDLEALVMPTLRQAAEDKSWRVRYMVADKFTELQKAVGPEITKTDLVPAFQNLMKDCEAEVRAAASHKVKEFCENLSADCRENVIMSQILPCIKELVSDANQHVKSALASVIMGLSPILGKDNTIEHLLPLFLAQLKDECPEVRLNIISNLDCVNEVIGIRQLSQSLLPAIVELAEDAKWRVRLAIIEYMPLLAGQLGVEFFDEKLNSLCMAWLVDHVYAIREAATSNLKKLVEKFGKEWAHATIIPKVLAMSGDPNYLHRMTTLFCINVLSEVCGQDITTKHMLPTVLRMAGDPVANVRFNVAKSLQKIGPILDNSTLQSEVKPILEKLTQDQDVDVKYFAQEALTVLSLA

T1: His6-Protein-C-tagged BAHD1 (UniProt Q8TBE0)
T1 sequence: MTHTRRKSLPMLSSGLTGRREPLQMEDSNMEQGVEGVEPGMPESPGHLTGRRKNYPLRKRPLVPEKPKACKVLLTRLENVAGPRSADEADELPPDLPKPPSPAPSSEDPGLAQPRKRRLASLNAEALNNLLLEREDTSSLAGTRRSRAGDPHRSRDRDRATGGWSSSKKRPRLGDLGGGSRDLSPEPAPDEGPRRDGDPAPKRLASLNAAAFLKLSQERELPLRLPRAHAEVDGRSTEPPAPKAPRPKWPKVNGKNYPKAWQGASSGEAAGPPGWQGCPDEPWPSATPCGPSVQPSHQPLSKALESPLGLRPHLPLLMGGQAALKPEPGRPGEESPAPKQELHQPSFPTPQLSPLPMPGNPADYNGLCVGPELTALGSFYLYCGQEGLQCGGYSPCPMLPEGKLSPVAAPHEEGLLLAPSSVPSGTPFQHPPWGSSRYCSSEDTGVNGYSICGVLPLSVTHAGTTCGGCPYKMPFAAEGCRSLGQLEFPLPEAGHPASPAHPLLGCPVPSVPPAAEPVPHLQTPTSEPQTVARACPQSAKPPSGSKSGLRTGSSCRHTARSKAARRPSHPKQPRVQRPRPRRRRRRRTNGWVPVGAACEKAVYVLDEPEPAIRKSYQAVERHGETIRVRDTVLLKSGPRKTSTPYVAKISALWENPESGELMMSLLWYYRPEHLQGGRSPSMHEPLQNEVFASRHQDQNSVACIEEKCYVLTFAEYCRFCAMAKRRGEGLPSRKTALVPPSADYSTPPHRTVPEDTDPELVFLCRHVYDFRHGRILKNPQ

B1: CDYL2 (protein, UniProt Q8N8U2 1-506)
chain: MASGDLYEVERIVDKRKNKKGKWEYLIRWKGYGSTEDTWEPEHHLLHCEEFIDEFNGLHMSKDKRIKSGKQSSTSKLLRDSRGPSVEKLSHRPSDPGKSKGTSHKRKRINPPLAKPKKGYSGKPSSGGDRATKTVSYRTTPSGLQIMPLKKSQNGMENGDAGSEKDERHFGNGSHQPGLDLNDHVGEQDMGECDVNHATLAENGLGSALTNGGLNLHSPVKRKLEAEKDYVFDKRLRYSVRQNESNCRFRDIVVRKEEGFTHILLSSQTSDNNALTPEIMKEVRRALCNAATDDSKLLLLSAVGSVFCSGLDYSYLIGRLSSDRRKESTRIAEAIRDFVKAFIQFKKPIVVAINGPALGLGASILPLCDIVWASEKAWFQTPYATIRLTPAGCSSYTFPQILGVALANEMLFCGRKLTAQEACSRGLVSQVFWPTTFSQEVMLRVKEMASCSAVVLEESKCLVRSFLKSVLEDVNEKECLMLKQLWSSSKGLDSLFSYLQDKIYEV
B2: MIER2 (protein, UniProt Q8N344 1-545)
chain: MAEASSLGRQSPRVVSCLEHSLCPGEPGLQTTAVVSMGSGDHQFNLAEILSQNYSVRGECEEASRCPDKPKEELEKDFISQSNDMPFDELLALYGYEASDPISDRESEGGDVAPNLPDMTLDKEQIAKDLLSGEEEEETQSSADDLTPSVTSHEASDLFPNRSGSRFLADEDREPGSSASSDTEEDSLPANKCKKEIMVGPQFQADLSNLHLNRHCEKIYENEDQLLWDPSVLPEREVEEFLYRAVKRRWHEMAGPQLPEGEAVKDSEQALYELVKCNFNVEEALRRLRFNVKVIRDGLCAWSEEECRNFEHGFRVHGKNFHLIQANKVRTRSVGECVEYYYLWKKSERYDYFAQQTRLGRRKYVPSGTTDADQDLDGSDPDGPGRPRPEQDTLTGMRTDPLSVDGTAGGLDEPGVASDGLPSSEPGPCSFQQLDESPAVPLSHRPPALADPASYQPAVTAPEPDASPRLAVDFALPKELPLISSHVDLSGDPEETVAPAQVALSVTEFGLIGIGDVNPFLAAHPTCPAPGLHSEPLSHCNVMTC
B3: MBD1 (protein, UniProt Q9UIS9 1-605)
chain: MAEDWLDCPALGPGWKRREVFRKSGATCGRSDTYYQSPTGDRIRSKVELTRYLGPACDLTLFDFKQGILCYPAPKAHPVAVASKKRKKPSRPAKTRKRQVGPQSGEVRKEAPRDETKADTDTAPASFPAPGCCENCGISFSGDGTQRQRLKTLCKDCRAQRIAFNREQRMFKRVGCGECAACQVTEDCGACSTCLLQLPHDVASGLFCKCERRRCLRIVERSRGCGVCRGCQTQEDCGHCPICLRPPRPGLRRQWKCVQRRCLRGKHARRKGGCDSKMAARRRPGAQPLPPPPPSQSPEPTEPHPRALAPSPPAEFIYYCVDEDELQPYTNRRQNRKCGACAACLRRMDCGRCDFCCDKPKFGGSNQKRQKCRWRQCLQFAMKRLLPSVWSESEDGAGSPPPYRRRKRPSSARRHHLGPTLKPTLATRTAQPDHTQAPTKQEAGGGFVLPPPGTDLVFLREGASSPVQVPGPVAASTEALLQEAQCSGLSWVVALPQVKQEKADTQDEWTPGTAVLTSPVLVPGCPSKAVDPGLPSVKQEPPDPEEDKEENKDDSASKLAPEEEAGGAGTPVITEIFSLGGTRFRDTAVWLPRSKDLKKPGARKQ
B4: CDYL1 (protein, UniProt Q9Y232 1-598)
chain: MTFQASHRSAWGKSRKKNWQYEGPTQKLFLKRNNVSAPDGPSDPSISVSSEQSGAQQPPALQVERIVDKRKNKKGKTEYLVRWKGYDSEDDTWEPEQHLVNCEEYIHDFNRRHTEKQKESTLTRTNRTSPNNARKQISRSTNSNFSKTSPKALVIGKDHESKNSQLFAASQKFRKNTAPSLSSRKNMDLAKSGIKILVPKSPVKSRTAVDGFQSESPEKLDPVEQGQEDTVAPEVAAEKPVGALLGPGAERARMGSRPRIHPLVPQVPGPVTAAMATGLAVNGKGTSPFMDALTANGTTNIQTSVTGVTASKRKFIDDRRDQPFDKRLRFSVRQTESAYRYRDIVVRKQDGFTHILLSTKSSENNSLNPEVMREVQSALSTAAADDSKLVLLSAVGSVFCCGLDFIYFIRRLTDDRKRESTKMAEAIRNFVNTFIQFKKPIIVAVNGPAIGLGASILPLCDVVWANEKAWFQTPYTTFGQSPDGCSTVMFPKIMGGASANEMLLSGRKLTAQEACGKGLVSQVFWPGTFTQEVMVRIKELASCNPVVLEESKALVRCNMKMELEQANERECEVLKKIWGSAQGMDSMLKYLQRKIDEF

Target: T1, His6-Protein-C-tagged BAHD1
Experiment: affinity purification with mass spectrometry; first-step purification only (E1, anti-protein C affinity matrix) of His6-Protein-C-BAHD1 from solubilized chromatin extracts of HPT-BAHD1 cells; mass spectrometry

binding	Molecule
binds	CHD3 (from UniProt Q12873 1-2000)
binds	DDX21 (from UniProt Q9NR30 1-783)
binds	G9a (from UniProt Q96KQ7 1-1210) (enzyme)
binds	HP1α (from UniProt P45973 1-191)
binds	RUVBL1 (from UniProt Q9Y265 1-456)
binds	B1

Target: T1, His6-Protein-C-tagged BAHD1
Experiment: affinity purification with mass spectrometry; tandem affinity purification of His6-Protein-C-BAHD1 from solubilized chromatin extracts of HPT-BAHD1 cells: anti-protein C affinity matrix (E1), then nickel-Sepharose (E2); eluate after the two steps separated by SDS-PAGE and analysed by mass spectrometry; HPT-CT cells as control

binding	Molecule
binds	DDX17 (from UniProt Q92841 1-729)
binds	HDAC1 (from UniProt Q13547 1-482) (enzyme)
binds	HDAC2 (from UniProt Q92769 1-488) (enzyme)
binds	HP1β (from UniProt P83916 1-185)
binds	HP1γ (from UniProt Q13185 1-183)
binds	KAP1 (from UniProt Q13263 1-835)
binds	PPP2R1A (from UniProt P30153 1-589)
binds	B2
binds	B3
binds	B4
